# The supplement of paper PMC3047530
# The list shows a part of the results. Repeats are few or missing, and single values can be far off.
# Test system: Geomyces destructans
# Test: growth inhibition relative to DMSO control; higher = stronger growth inhibition
# Details: 10 µM; 15 °C; incubation time 10 days
row,SMILES,growth inhibition
1,N[C@@H]1C[C@H]1c1ccccc1.N[C@H]1C[C@@H]1c1ccccc1,-10.2%
2,COc1ccc(C(c2ccc(OC)cc2)C(Cl)(Cl)Cl)cc1,-10.3%
3,COC(=O)NC(=S)Nc1ccccc1NC(=S)NC(=O)OC,-19%
4,CCOP(=S)(OCC)Oc1ccc2c(C)c(Cl)c(=O)oc2c1,-17%
5,CC(C)=CCC[C@]1(C)C=Cc2c(O)c3c(c(CC=C(C)C)c2O1)O[C@]12C(=C[C@@H]4C[C@H]1C(C)(C)O[C@@]2(C/C=C(/C)C(N)=O)C4=O)C3=O,0.416%
6,FC(F)(F)c1cccc(N2CCNCC2)c1,-10.1%
7,CC1CC(Cl)CCC1C(=O)OC(C)(C)C (stereo unspecified),-8.7%
8,COc1ccccc1N1CCNCC1,-33.5%
9,CCCCCCCCCCCCCCCC[n+]1ccccc1,90.7%
10,C=CCC1(C(C)CCC)C(=O)NC(=S)NC1=O (stereo unspecified),8.31%
11,c1ccc2c3c([nH]c2c1)CNCC3,-6.72%
12,c1ccc(/N=N/c2ccccc2)cc1,7.04%
13,CC(=O)O[C@@H]1CC[C@@]2(C)[C@@H](CC[C@@H]3[C@@H]2CC[C@]2(C)C(=O)CC[C@@H]32)C1,-23.4%
14,CC[S+]([O-])CCSP(=O)(OC)OC (stereo unspecified),-5.31%
15,CCOP(=S)(OCC)Oc1nc(Cl)c(Cl)cc1Cl,-6.37%
16,O=P1(N(CCCl)CCCl)NCCCO1 (stereo unspecified),-6.55%
17,c1ccc2c(c1)sc1ccccc12,-5.92%
18,C=C1C2CC[C@@]3(C)[C@H](c4ccoc4)OC(=O)C[C@]13O[C@H]1CC(=O)C(C)(C)[C@H](C(OC(C)=O)C(=O)OC)[C@@]21C (stereo partly specified),-8.54%
19,CN1C(=O)CCS(=O)(=O)C1c1ccc(Cl)cc1 (stereo unspecified),-6.39%
20,CC(C)[C@]12O[C@H]1[C@@H]1O[C@@]13[C@@]1(C)CCC4=C(COC4=O)[C@@H]1C[C@@H]1O[C@@]13C2=O,-20.4%
21,CC(N)C(O)c1ccc(O)c(O)c1 (stereo unspecified),4.73%

row,SMILES,growth inhibition
1,CC(=O)NC1CCSC1=O (stereo unspecified),-3.47%
2,CNC(=O)Oc1ccccc1OC(C)C,-2.26%
3,COc1cc([C@@H]2c3cc4c(cc3[C@H](OC(C)=O)[C@H]3COC(=O)[C@@H]23)OCO4)cc(OC)c1OC,-7.36%
4,O=C(O)Cc1cnc[nH]1,-6.28%
5,COc1cc2c(c(OC)c1OC)-c1ccc(OC)c(=O)cc1[C@@H](NC(C)=O)CC2,-4.67%
6,N#C[C@H](O[C@@H]1O[C@H](CO[C@@H]2O[C@H](CO)[C@@H](O)[C@H](O)[C@H]2O)[C@@H](O)[C@H](O)[C@H]1O)c1ccccc1,-4.15%
7,CN1C(=O)CN=C(c2ccccc2)c2cc(Cl)ccc21,-10.6%
8,C[C@]12CC[C@H](O)CC1=CC[C@@H]1[C@@H]2CC[C@]2(C)C(=O)CC[C@@H]12,-8.86%
9,CC1C=CC=CCCC=CC=CC=CC=CC(OC2OC(C)C(O)C(N)C2O)CC2OC(O)(CC(O)C(O)CCC(O)CC(O)CC(O)CC(=O)OC(C)C(C)C1O)CC(O)C2C(=O)O (stereo unspecified),-9.03%
10,CC(=O)O[C@H]1CC[C@@]2(C)[C@H](CC[C@@H]3[C@@H]2CC[C@]2(C)[C@@H](C4=CC(=O)OC4)[C@@H](OC(C)=O)C[C@]32O)C1,-2.7%
11,CC[N+]1(C)CCCC(OC(=O)C(O)(c2ccccc2)c2ccccc2)C1 (stereo unspecified),-3.5%
12,CC1=C2C(=CO[C@H](C)[C@H]2C)C(O)=C(C(=O)O)C1=O,-36.6%
13,CC(C)Nc1nc(Cl)nc(NC(C)C)n1,-2.1%
14,N#Cc1c(Cl)c(Cl)c(Cl)c(C#N)c1Cl,-2.08%
15,O=S1OCC2C(CO1)C1(Cl)C(Cl)=C(Cl)C2(Cl)C1(Cl)Cl (stereo unspecified),7.5%
16,CCCCSP(=O)(SCCCC)SCCCC,-5%
17,C[C@]1(C(=O)O)CCC[C@]2(C)c3cc(O)ccc3CC[C@@H]12,-24.1%
18,Cc1[nH]c2ccccc2c1CN(C)C,-2.99%
19,Cc1nccc2c1[nH]c1cc(O)ccc12,-4.09%
20,CC(C)c1cc2c(c(O)c1O)[C@@]1(C(=O)O)CCCC(C)(C)[C@@H]1CC2,0.0983%
21,CCCCCCC(C)OC(=O)COc1ccc(Cl)cc1Cl (stereo unspecified),-2.56%

row,SMILES,growth inhibition
1,Oc1ccc2c3c1O[C@H]1[C@@H](O)CC[C@@]4(O)[C@@H](C2)N(CC2CCC2)CC[C@]314,-11.1%
2,O=C(O)CC[N+](=O)[O-] [BOVINOCIDIN (3-nitropropionic acid)],-4.17%
3,CC(=O)O[C@@H]1CC2C(C)(C)[C@H](O)C=C[C@]2(C)C2CC[C@]3(C)C(=CC(=O)O[C@H]3c3ccoc3)[C@@]21C (stereo partly drawn) [3-alpha-HYDROXYDEOXYGEDININ],-8.54%
4,CO[C@@H]1C[C@H](O[C@H]2CC[C@]3(C)[C@H]4CC[C@]5(C)[C@@H](C6=CC(=O)OC6)CC[C@]5(O)[C@@H]4CC[C@]3(O)C2)O[C@H](C)[C@H]1O,-17.1%
5,CN1C[C@H](CNC(=O)OCc2ccccc2)C[C@@H]2c3cccc4c3c(cn4C)C[C@H]21,17.4%
6,O=C(O)CF,-2.67%
7,O=C(CCCN1CCC2(CC1)C(=O)NCN2c1ccccc1)c1ccc(F)cc1,-10.2%
8,"CC1(C)C(=O)[C@@H]2O[C@@H]2[C@@]2(C)C1C[C@@H](O)[C@]1(C)C2CC[C@@]2(C)[C@H](c3ccoc3)OC(=O)C3OC321 (stereo partly drawn) [1,2alpha-EPOXYDEACETOXYDIHYDROGEDUNIN]",-4.12%
9,O=[N+]([O-])O[C@H]1CO[C@H]2[C@@H]1OC[C@H]2O[N+](=O)[O-],-10.9%
10,COc1cc2ccc(=O)oc2c2ccoc12,4.01%
11,O=c1cccc2n1C[C@@H]1CNC[C@H]2C1,15.3%
12,CCC(=O)Nc1ccc(Cl)c(Cl)c1,1.25%
13,CC[C@@H](C)C(=O)O[C@H]1[C@H](O)[C@H]2[C@@H](CN3C[C@@H](C)CC[C@H]3[C@@]2(C)O)[C@@H]2C[C@]34O[C@]5(O)[C@@H](OC(=O)[C@@](C)(O)CC)CC[C@@]3(C)[C@@H]5[C@@H](OC(C)=O)[C@@H](OC(C)=O)[C@H]4[C@@]21O,-9.05%
14,ClC1=C(Cl)C2(Cl)C3C4CC(C5OC45)C3C1(Cl)C2(Cl)Cl (stereo unspecified),-4.39%
15,O=C(O)c1nn(Cc2ccc(Cl)cc2Cl)c2ccccc12,-0.92%
16,C[C@@H]1C[C@@H]([C@H](O)CC2CC(=O)NC(=O)C2)C(=O)[C@@H](C)C1,44.6%
17,COc1cc2c(cc1O)CCN[C@@H]2C,-7.69%
18,CC(=O)[O-].CC(=O)[O-].[Cd+2],4.18%
19,COc1cc2c(cc1OC)[C@@H]1C(=O)c3ccc4c(c3O[C@@H]1CO2)CC(C(C)C)O4 (stereo partly specified),-12.8%

# Laid out differently: results already given.
row | SMILES | growth inhibition
19 | CN1C(=O)CCS(=O)(=O)C1c1ccc(Cl)cc1 (stereo unspecified) | -6.39%
20 | CC(C)[C@]12O[C@H]1[C@@H]1O[C@@]13[C@@]1(C)CCC4=C(COC4=O)[C@@H]1C[C@@H]1O[C@@]13C2=O | -20.4%
